Assay results reported in PubChem BioAssay AID540276 (National Center for Advancing Translational Sciences (NCATS), 2011).
In all, about 300,000 compounds went through this assay and about 5,400 (1.8%) were called active. Inconclusive means that the source gave no clear call. Such entries were picked first, then a sample of the others. The call rests on the fitted dose curve; tested in HEK293 cells. A potency beside an inconclusive call is a rough fit, not a confirmed value. A structure can be active in one record and inactive in another.
On the % scale 0 is the no-effect control and ±100 the full control effect; potency means the concentration at half of the fitted maximal effect.

Assay: qHTS for inhibitors of binding or entry into cells for Marburg Virus
Details: Marburg virus pseudotyped entry inhibition, cell reporter; activity change, negative = inhibition: at 37.8 µM (top of the series) unless noted
For `CC(C)NC(=O)Cn1c(SCC(=O)N2CCCCCC2)nc2ccccc21`, the Potency was inconclusive: 2.59 µM [activator, full curve, poor fit].
For `COc1ccc(NC(=O)C2(c3ccc(NC(=O)c4ccc(C)cc4)cc3)CCCC2)cc1`, the “activity change, negative = inhibition” value was inactive: -0.656%.
In the case of `CCOC(=O)CN1C(=O)CCSc2ccc(Cl)cc21`, the “activity change, negative = inhibition” value was inactive: 1.48% [at 46.1 µM].
With `COc1ccc(N(C(=O)CNC(=O)c2ccco2)C(C(=O)NCC2CCCO2)c2ccccc2)cc1` (centres undefined) the “activity change, negative = inhibition” value was inactive: 1.65% [at 46.1 µM].
For `COc1ccc(N2C(=O)CC(NC3CCCCNC3=O)C2=O)cc1` (centres undefined), the Potency was inconclusive: 31.6 µM [activator, single point].
With `O=C(COc1cccnc1[N+](=O)[O-])Nc1cccc2ccccc12` the “activity change, negative = inhibition” value was inactive: -25.9%.
In the case of `CCOC(=O)C1=C(CN(C)Cc2ccccc2)NC(=O)NC1c1ccc(OC(C)C)cc1` (centres undefined), the Potency was inconclusive: 2.82 µM [inhibitor, partial curve, poor fit].
With `CCOC(=O)C1C(=O)CC(C)(O)C(C(=O)OCC)C1c1cc(Br)ccc1OC` (centres undefined) the Potency was inconclusive: 6.51 µM [inhibitor, single point].
For `COc1ccc(C(=O)NCc2ccccc2OC)cc1`, the “activity change, negative = inhibition” value was inactive: 20.7%.
With `CC(C)c1ccc(Nc2c(-c3ccsc3)nc3ccc(Cl)cn23)cc1` the “activity change, negative = inhibition” value was inactive: -2.1% [at 46.1 µM].
With `Cc1ccc(C)c(C(=O)CSc2n[nH]c(C)n2)c1` the “activity change, negative = inhibition” value was inactive: -16.7%.
With `COc1ccc(Nc2nc(N3CCOCC3)nc(N3CCOCC3)n2)cc1Cl` the Potency was inconclusive: 22.4 µM [inhibitor, partial curve, poor fit].
In the case of `COc1ccccc1-n1cnnc1SC(C)C(=O)Nc1cccc([N+](=O)[O-])c1` (centres undefined), the “activity change, negative = inhibition” value was inactive: 21.2%.
With `Cc1ccc(-c2nc(CS(=O)CC(=O)NCCN(CC(C)C)CC(C)C)c(C)o2)cc1` (centres undefined) the Potency was inconclusive: 29.1 µM [inhibitor, single point].
For `COc1ccc(Cn2nnnc2C(c2ccccc2)N2CCN(C3CCCC3)CC2)cc1` (centres undefined), the Potency was active: 7.08 µM.
With `Cc1cc(NC(=O)C(C)SCC(=O)N(C)CC(=O)Nc2ccc(F)cc2)no1` (centres undefined) the Potency was inconclusive: 1.26 µM [activator, single point].
In the case of `CC(C)(C)c1ccc(OCc2cc(=O)n3c4c(sc3n2)CCCC4)cc1`, the “activity change, negative = inhibition” value was inactive: 12.9% [at 46.1 µM].
For `CC(C)(C)c1ccc(-n2nc(C#N)c(Cl)cc2=O)cc1`, the Potency was inconclusive: 4.47 µM [inhibitor, full curve, poor fit].
For `Clc1ccc(/C=N/NC(=Nc2ccccc2)c2ccccn2)c(Cl)c1`, the “activity change, negative = inhibition” value was inactive: -9.18%.
In the case of `C=CCn1c(=N)n(CC(=O)c2ccc(Cl)cc2)c2ccccc21`, the Potency was inconclusive: 25.1 µM [inhibitor, single point].
With `Cc1cc2c(cc1C)NP(=S)(c1ccccc1)N2` the Potency was inconclusive: 35.5 µM [inhibitor, single point].
For `Cc1ccsc1C(=O)OCC(=O)N1CC(C)CC(C)C1` (centres undefined), the Potency was inconclusive: 6.31 µM [inhibitor, single point].
In the case of `CC(=O)NC12CC3CC(C1)CC(C(=O)Nc1nc4ccc(S(C)(=O)=O)cc4s1)(C3)C2`, the Potency was inconclusive: 35.5 µM [activator, single point].
For `C=CCn1c(=NC(=O)c2ccccc2[N+](=O)[O-])sc2cc(S(C)(=O)=O)ccc21`, the Potency was inconclusive: 2.51 µM [inhibitor, partial curve, poor fit].
In the case of `O=c1[nH]ccc2c(O)cccc12`, the Potency was inconclusive: 14.1 µM [inhibitor, partial curve, poor fit].
With `O=C(N/N=C/c1ccccc1F)C(=O)N1CCCCCC1` the “activity change, negative = inhibition” value was inactive: 19.1% [at 46.1 µM].
With `CC(=NNc1nc2ccccc2o1)c1cc2ccccc2cn1` the Potency was active: 0.355 µM.
With `Cn1c(=O)c2c(nc(NCc3ccccc3)n2Cc2ccc(Cl)c(Cl)c2)n(C)c1=O` the Potency was inconclusive: 35.5 µM [inhibitor, single point].
In the case of `O=C1CCC(C(=O)Nc2ccccc2N2CCOCC2)=NN1`, the Potency was inconclusive: 6.31 µM [inhibitor, single point].
In the case of `CCCSc1nc2c(c(=O)[nH]1)C(c1ccc(O)c(OCC)c1)CC(=O)N2` (centres undefined), the Potency was inconclusive: 14.1 µM [activator, single point].
For `Cc1ccc(-n2cc(CN3CCC(CO)(Cc4cccc(C(F)(F)F)c4)CC3)cn2)cc1`, the Potency was inconclusive: 35.5 µM [inhibitor, single point].
For `N#C/C(=C\c1ccc([N+](=O)[O-])o1)C(=O)Nc1ccc(F)cc1`, the Potency was inconclusive: 6.31 µM [activator, single point].
With `CC(=O)C(C)n1c(CN(C)Cc2ccccc2)nc2c1c(=O)n(C)c(=O)n2C` (centres undefined) the Potency was inconclusive: 35.5 µM [inhibitor, single point].
With `CCOc1ccc(CSCCNC(=S)Nc2ccccc2)cc1` the “activity change, negative = inhibition” value was inactive: -23.1%.
